# Source: patent US10351561B2, “Pyrazolo[3,4-b]pyridines and imidazo[1,5-b]pyridazines as PDE1 inhibitors” (H. Lundbeck A/S, priority 2016, dated 2019)
# Amino acid sequences for entries named in this document (tags omitted).
# UniProt P54750, whole entry: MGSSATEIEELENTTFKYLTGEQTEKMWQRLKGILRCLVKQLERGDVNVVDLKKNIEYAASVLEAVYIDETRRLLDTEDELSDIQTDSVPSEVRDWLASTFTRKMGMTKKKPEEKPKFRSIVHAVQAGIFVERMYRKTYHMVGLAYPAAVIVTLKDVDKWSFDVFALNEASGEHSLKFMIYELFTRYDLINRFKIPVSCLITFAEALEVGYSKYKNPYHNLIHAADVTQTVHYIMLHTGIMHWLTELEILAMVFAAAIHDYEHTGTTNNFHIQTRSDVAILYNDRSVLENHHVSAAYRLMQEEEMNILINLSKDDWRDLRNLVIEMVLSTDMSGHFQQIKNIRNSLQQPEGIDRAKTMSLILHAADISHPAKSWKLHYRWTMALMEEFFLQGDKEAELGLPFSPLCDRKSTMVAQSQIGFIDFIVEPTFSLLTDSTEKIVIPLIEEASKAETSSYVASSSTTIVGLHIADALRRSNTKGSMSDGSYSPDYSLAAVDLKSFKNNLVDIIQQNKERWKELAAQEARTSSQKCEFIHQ
# UniProt Q01064, whole entry: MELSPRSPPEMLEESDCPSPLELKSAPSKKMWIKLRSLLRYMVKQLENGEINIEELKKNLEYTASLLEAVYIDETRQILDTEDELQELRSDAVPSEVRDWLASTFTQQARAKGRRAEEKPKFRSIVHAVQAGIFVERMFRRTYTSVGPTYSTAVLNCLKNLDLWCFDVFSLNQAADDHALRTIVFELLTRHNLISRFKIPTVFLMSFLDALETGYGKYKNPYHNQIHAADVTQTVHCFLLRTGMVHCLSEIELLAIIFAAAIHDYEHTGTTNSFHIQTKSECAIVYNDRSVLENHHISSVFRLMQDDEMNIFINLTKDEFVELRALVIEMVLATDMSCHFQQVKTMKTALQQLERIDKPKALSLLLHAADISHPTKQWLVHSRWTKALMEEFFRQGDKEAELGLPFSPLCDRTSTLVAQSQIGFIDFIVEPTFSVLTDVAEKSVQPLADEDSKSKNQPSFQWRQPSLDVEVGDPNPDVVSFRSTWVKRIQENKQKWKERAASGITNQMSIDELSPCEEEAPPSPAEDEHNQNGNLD
# UniProt Q14123, whole entry: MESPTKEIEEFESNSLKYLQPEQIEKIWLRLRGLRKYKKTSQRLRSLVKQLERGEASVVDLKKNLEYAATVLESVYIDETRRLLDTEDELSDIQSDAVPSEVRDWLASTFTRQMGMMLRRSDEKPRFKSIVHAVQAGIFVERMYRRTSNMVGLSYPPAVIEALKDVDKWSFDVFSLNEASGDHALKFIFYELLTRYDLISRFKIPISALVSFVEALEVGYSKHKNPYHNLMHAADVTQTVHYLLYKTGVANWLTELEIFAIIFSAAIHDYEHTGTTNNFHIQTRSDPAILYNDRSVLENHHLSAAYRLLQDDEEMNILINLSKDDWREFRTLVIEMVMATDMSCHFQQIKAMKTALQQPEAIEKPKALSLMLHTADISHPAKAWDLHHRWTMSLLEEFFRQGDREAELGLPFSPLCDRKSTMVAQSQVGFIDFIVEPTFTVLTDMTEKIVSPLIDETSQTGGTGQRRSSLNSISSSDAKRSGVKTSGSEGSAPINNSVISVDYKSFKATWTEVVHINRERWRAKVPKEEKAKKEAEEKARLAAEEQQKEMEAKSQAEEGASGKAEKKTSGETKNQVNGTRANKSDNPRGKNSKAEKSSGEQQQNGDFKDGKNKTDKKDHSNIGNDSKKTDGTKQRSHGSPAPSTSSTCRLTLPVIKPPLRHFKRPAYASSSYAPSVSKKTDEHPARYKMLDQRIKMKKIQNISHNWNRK
# Experiments:
# PDE1A = PDE1A (Homo sapiens, UniProt P54750); assay: PDE1 inhibition assay (PDE1A), SPA with tritium labelled cAMP; conditions: read-out: PDE1A, IC50; 15 nM tritium labelled cAMP, 1 hr at room temperature, SPA beads
# Procedure: (§1) PDE1A, PDE1B and PDE1C assays were performed as follows: the assays were performed in 60 μL samples containing a fixed amount of the PDE1 enzyme (sufficient to convert 20-25% of the cyclic nucleotide substrate), a buffer (50 mM HEPES (4-(2-hydroxyethyl)-1-piperazineethanesulfonic acid) pH 7.6; 10 mM MgCl2; 0.02% Tween20), 0.1 mg/ml BSA (bovine serum albumin), 15 nM tritium labelled cAMP and varying amounts of inhibitors. Reactions were initiated by addition of the cyclic nucleotide substrate, and reactions were allowed to proceed for 1 hr at room temperature before being terminated through mixing with 20 μL (0.2 mg) yttrium silicate SPA beads (PerkinElmer). The beads were allowed to settle for 1 hr in the dark before the plates were counted in a Wallac 1450 Microbeta counter. The measured signals were converted to activity relative to an uninhibited control (100%) and IC50 values were calculated using XIFit (model 205, IDBS).
# PDE1B = PDE1B (Homo sapiens, UniProt Q01064); assay: PDE1 inhibition assay (PDE1B), SPA with tritium labelled cAMP; conditions: read-out: PDE1B, IC50; 15 nM tritium labelled cAMP, 1 hr at room temperature, SPA beads
# PDE1C = PDE1C (Homo sapiens, UniProt Q14123); assay: PDE1 inhibition assay (PDE1C), SPA with tritium labelled cAMP; conditions: read-out: PDE1C, IC50; 15 nM tritium labelled cAMP, 1 hr at room temperature, SPA beads
# Procedure: as §1
smiles,measurement,setting,value
CCOc1ncccc1-c1cc(NCc2cn(C)cn2)c2c(C(C)C)nn(C)c2n1,IC50,PDE1A,7.2 nM
same,IC50,PDE1B,0.71 nM
same,IC50,PDE1C,12 nM

# The match of structure and compound is tentative.
